Results on one substance are retold here after paper PMC6614423, “Noxa mitochondrial targeting domain induces necrosis via VDAC2 and mitochondrial catastrophe” (Cell Death & Disease, 2019).

Amino acid sequences for entries named in this document (tags omitted).
UniProt P21796: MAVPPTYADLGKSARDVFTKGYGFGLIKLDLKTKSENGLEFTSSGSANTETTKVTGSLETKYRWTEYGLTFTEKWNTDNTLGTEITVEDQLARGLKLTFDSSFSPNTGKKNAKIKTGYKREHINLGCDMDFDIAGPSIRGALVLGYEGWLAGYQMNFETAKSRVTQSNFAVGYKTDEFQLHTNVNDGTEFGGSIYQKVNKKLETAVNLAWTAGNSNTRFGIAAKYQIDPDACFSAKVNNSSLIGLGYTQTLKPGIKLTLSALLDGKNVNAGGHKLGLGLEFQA

For one assay, the target named is T1, GFP-Noxa (41-54) (UniProt Q13794).
T1 sequence: KLLNLISKLFCSGT
Description: co-IP; 293 HEK cells cotransfected with GFP-Noxa and VDAC-Flag plasmids; immunoprecipitation with anti-GFP antibody, immunoblot with anti-Flag.

The next assay deals with T2, GFP-Noxa (1-54) (UniProt Q13794).
T2 sequence: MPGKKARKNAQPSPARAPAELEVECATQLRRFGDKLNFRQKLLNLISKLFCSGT
The description is as above.

These are yes or no findings as the source states them, for the method shown. In cells and extracts the contact can be indirect. Some entries that bind do so weakly or less than the wild type. Sequences can lack the tags named with a protein.

Regarding VDAC1-Flag (from UniProt P21796 1-283), the binding entry with GFP-Noxa (41-54) and with GFP-Noxa (1-54) was “binds” in each case.
